# Experimental data taken from PubChem BioAssay AID485353 (National Center for Advancing Translational Sciences (NCATS), 2010).
# In all, about 330,000 compounds went through this assay and about 610 (0.18%) were called active. The inconclusive results got no clear call from the source; some entries with a clear call stand among them for comparison. Calls follow the shape of the full dose curve. Where the call is inconclusive, the potency comes from a doubtful curve fit.
# Assay: qHTS of Yeast-based Assay for SARS-CoV PLP; also: nearly all actives have a fitted effect of over 55% in size; as to activity, positive = growth rescue: 0% is about no effect
# Settings: S. cerevisiae expressing SARS-CoV PLpro; Potency: growth rescue; activity, positive = growth rescue: at 32.9 µM (top of the series)
# Potency is read from the fitted curve at half-maximal effect.
Structure (SMILES),"activity, positive = growth rescue",Potency
O=C(NCc1ccc(F)cc1)C1CCC(CNS(=O)(=O)c2ccccc2)CC1 (centres undefined),inactive: -1.13%,–
CCCCn1c(=O)c(CCC(=O)OC(C)C(=O)Nc2cccc(Cl)c2Cl)nc2ccccc21 (centres undefined),–,"inconclusive: 20 µM [activator, single point]"
Cc1nn(S(=O)(=O)c2ccc(F)cc2)c(C)c1S(=O)(=O)N1CCCCC1,inactive: -1.05%,–
CCOC(=O)N1CCN(S(=O)(=O)c2ccc(C(=O)NNc3nc4c(C)cccc4s3)cc2)CC1,–,active: 7.94 µM
CCCC(=O)NC(c1ccco1)c1cc([N+](=O)[O-])c2cccnc2c1O (centres undefined),–,"inconclusive: 2 µM [activator, full curve]"
Cc1ccccc1OCCOC(=O)c1cc(S(=O)(=O)N2CCCCC2)ccc1N1CCOCC1,–,active: 10 µM
Cc1c(NS(=O)(=O)c2ccccc2)cc(Cl)c(O)c1C,–,"inconclusive: 20 µM [activator, single point]"
Cc1ccc(NC(=O)CNC(=O)c2ccccc2F)cc1Cl,–,"inconclusive: 20 µM [activator, single point]"
CCc1cc(C(=O)NNC(=O)CCl)sc1C,–,"inconclusive: 11.2 µM [activator, single point]"
Cc1ccc(NC2=NCC(=O)N2c2ccc3c(c2)OCCO3)c(C)c1,–,"inconclusive: 20 µM [activator, single point]"
CCn1c(SCC(=O)N2CCN(c3ccccc3)CC2)nnc1-c1ccncc1,–,"inconclusive: 20 µM [activator, single point]"
CC(=O)Nc1ccc(S(=O)(=O)NCc2csc(-c3cccnc3)n2)cc1,–,"inconclusive: 10 µM [activator, partial curve]"
O=C(NC(=S)Nc1ccc2c(c1)OCCO2)c1ccccc1F,inactive: -0.253%,–
O=C(c1cc(COc2cccc(C(F)(F)F)c2)on1)N1CCC(Oc2cccnc2)CC1,–,"inconclusive: 0.398 µM [activator, full curve, poor fit]"
COc1ccc(NC(=O)CN(C)C(=O)CNC(=O)Cc2cccc3ccccc23)cc1,–,"inconclusive: 0.447 µM [activator, full curve]"
COc1ccccc1CN1CCNC(=O)C1CC(=O)NCC1CCOCC1 (centres undefined),inactive: 1.63%,–
O=C(Cn1nc(C(=O)O)c2ccccc2c1=O)Nc1cc(C(F)(F)F)ccc1-n1cncn1,inactive: -1.68%,–
Cc1cc(-c2ccc(C)c(S(=O)(=O)Nc3ccc(S(N)(=O)=O)cc3)c2)on1,–,"inconclusive: 3.55 µM [activator, single point]"
CNC[C@H]1Oc2c(NS(=O)(=O)c3ccccc3)cccc2C(=O)N([C@H](C)CO)C[C@@H]1C,–,active: 10 µM
CC(=O)Nc1cccc(NC(=O)CCN2C(=O)c3ccccc3S2(=O)=O)c1,–,"inconclusive: 2 µM [activator, partial curve]"
CCOc1ccccc1-n1c(=S)sc2c(=O)n(-c3ccc(C)cc3)c(=S)[nH]c21,inactive: -2.7%,–
Cn1ccc(C(=O)Nc2sc3c(c2C(N)=O)CCCCC3)n1,–,"inconclusive: 20 µM [activator, single point]"
CCCCc1ccc(NC(=S)Nc2ccc(Nc3ccc(OC)cc3)cc2)cc1,–,"inconclusive: 8.91 µM [activator, partial curve, poor fit]"

# Look-ups from above:
# Under Potency, `CCCCn1c(=O)c(CCC(=O)OC(C)C(=O)Nc2cccc(Cl)c2Cl)nc2ccccc21` (centres undefined) reads inconclusive: 20 µM [activator, single point]
# Under Potency, `CCn1c(SCC(=O)N2CCN(c3ccccc3)CC2)nnc1-c1ccncc1` reads inconclusive: 20 µM [activator, single point]
# Under activity, positive = growth rescue, `COc1ccccc1CN1CCNC(=O)C1CC(=O)NCC1CCOCC1` (centres undefined) reads inactive: 1.63%
# Under Potency, `CCCC(=O)NC(c1ccco1)c1cc([N+](=O)[O-])c2cccnc2c1O` (centres undefined) reads inconclusive: 2 µM [activator, full curve]
# Under Potency, `CC(=O)Nc1ccc(S(=O)(=O)NCc2csc(-c3cccnc3)n2)cc1` reads inconclusive: 10 µM [activator, partial curve]

# The listing continues.

Structure (SMILES),"activity, positive = growth rescue",Potency
O=C(COC(=O)C1CCCCC1)Nc1cc([N+](=O)[O-])ccc1F,inactive: -8.88%,–
COC(=O)c1ccc(CN2C(=O)c3ccccc3C2=O)cc1,–,"inconclusive: 20 µM [activator, single point]"
C/C(CC(=O)Nc1ccccn1)=N\NC(=O)c1ccccc1O,–,"inconclusive: 20 µM [activator, single point]"
CCOC(=O)c1ccc(-c2ccc3c(c2)CCC3)nc1C,inactive: -0.51%,–
CC(=O)COc1ccc2c(-c3ccccc3)cc(=O)oc2c1,–,"inconclusive: 20 µM [activator, single point]"
NS(=O)(=O)c1ccc(NC(=O)C2CCCO2)cc1 (centres undefined),inactive: 6.95%,–
Cc1cc(NC(=O)CSc2ccc3ccccc3c2)no1,–,"inconclusive: 3.16 µM [activator, single point]"
Cc1ccc2oc(-c3cccc(NC(=O)c4cc(-n5cnnc5)ccc4Cl)c3)nc2c1,–,"inconclusive: 4.47 µM [activator, partial curve, poor fit]"
COc1ccc(C(NC(=O)C(C)C)c2ccc3cccnc3c2O)cc1 (centres undefined),–,"inconclusive: 0.398 µM [activator, full curve]"
O=C(/C=C/c1ccc(O)c(O)c1)c1ccc(S(=O)(=O)N2CCCCCC2)cc1,–,"inconclusive: 20 µM [activator, single point]"
CCOc1ccccc1C(=O)n1nc(C)cc1C,–,"inconclusive: 4.47 µM [activator, single point]"
CCn1cc(NC(=O)Nc2ccc(OC)c(OC)c2)c(C(N)=O)n1,–,"inconclusive: 20 µM [activator, single point]"
O=C(C(=O)N1CCc2ccccc2C1)c1cn(CC(=O)N2CCCCC2)c2ccccc12,–,"inconclusive: 3.98 µM [activator, single point]"
CC(=O)c1cccc(CN2CCC(C(=O)Nc3ccc(Oc4cccnc4)cc3)CC2)c1,–,"inconclusive: 3.55 µM [activator, single point]"
COC(=O)c1ccc(NC(=S)NC2CCCCC2C)cc1 (centres undefined),–,"inconclusive: 10 µM [activator, partial curve, poor fit]"
O=C1NC(=O)N(Cc2cccs2)C(=O)/C1=C/c1ccc(N2CCOCC2)cc1,inactive: 0.275%,–
COc1ccc(S(=O)(=O)N(C)C)cc1NC(=O)CCNC(=O)c1ccccc1OC,inactive: -1.33%,–
Cc1cccc(Nc2ncnc3nc[nH]c23)c1,–,"inconclusive: 11.2 µM [activator, partial curve]"
COc1cc(OC)c(OC)cc1CNCCNC(=O)c1ccco1,inactive: -0.909%,–
CCOC(=O)C1(CCOc2ccccc2)CCN(CC(O)CO)CC1 (centres undefined),inactive: 4.06%,–
CCOC(=O)[C@@H](CCc1ccccc1)N[C@H](C)C(=O)N1[C@H](C(=O)O)C[C@@H]2CCC[C@@H]21,inactive: 1.35%,–
CNc1nc(SC)nc2ccsc12,–,"inconclusive: 3.98 µM [activator, single point]"
CCC(C(=O)Nc1ccccc1C(=O)N1CCOCC1)N1C(=O)c2ccccc2C1=O (centres undefined),–,"inconclusive: 20 µM [activator, single point]"

Structure (SMILES),"activity, positive = growth rescue",Potency
Cc1cc(C)c2c(N)c(S(=O)(=O)c3ccccc3)sc2n1,–,"inconclusive: 20 µM [activator, single point]"
CCOc1cc(NC(=S)NCCCN2CCOCC2)c(OCC)cc1NC(=O)c1ccco1,inactive: -0.261%,–
O=C1/C(=C/c2ccccc2)SC(=S)N1CC(=O)N1CCCCC1c1cccnc1 (centres undefined),inactive: -54.8%,–
O=C(NCc1ccc2c(c1)OCO2)c1ccncc1,–,active: 15.8 µM
Cc1ccc(C(=O)N(c2c(C)n(C)n(-c3ccccc3)c2=O)C(C)C)cc1,–,"inconclusive: 3.55 µM [activator, single point]"
Cc1ccccc1N1CC(C(=O)Nc2nnc(SCCC3OCCO3)s2)CC1=O (centres undefined),–,"inconclusive: 3.98 µM [activator, single point]"
COc1cccc(/C=N/NC(=O)C[n+]2ccccc2)c1O,–,"inconclusive: 12.6 µM [activator, partial curve]"
O=C(N/N=C/c1ccc(OC(F)F)cc1)c1ccc(CSc2nc3ccccc3[nH]2)cc1,–,"inconclusive: 10 µM [activator, single point]"
CCOc1cc(/C=C2/C(=N)N3C(=NC2=O)SN=C3S(=O)(=O)C(C)C)ccc1OC(=O)c1ccco1,–,"inconclusive: 3.98 µM [activator, single point]"
Cc1ccc(NC(=O)C(c2ccccc2)N2CCN(CC(=O)N3CCOCC3)CC2)cc1 (centres undefined),inactive: -1.08%,–
CN1CCN(C(=O)C2CCC(=O)N(CCc3cccc(F)c3)C2)CC1 (centres undefined),–,"inconclusive: 4.47 µM [activator, single point]"
O=c1oc2ccccc2cc1-c1ccc(O)cc1O,–,"inconclusive: 3.16 µM [activator, single point]"
COc1ccc(CCNC(=O)[C@H](C)N2C(=O)N3CCc4c([nH]c5ccccc45)[C@@]3(C)C2=O)cc1OC,–,"inconclusive: 20 µM [activator, single point]"
O=C(N/N=C/c1coc2ccc(Cl)cc2c1=O)c1ccncc1,–,"inconclusive: 3.55 µM [activator, single point]"
COc1cccc(C(CNC(=O)C2CCN(C(=O)Nc3ccccc3)CC2)N(C)C)c1 (centres undefined),–,"inconclusive: 17.8 µM [activator, single point]"
C=CCN1C(=O)c2ccc(C(=O)N3CCN(S(=O)(=O)c4cccc(Cl)c4)CC3)cc2C1=O,–,"inconclusive: 1 µM [activator, partial curve]"
Cc1ccc(Cn2cccc2/C=C2/C(=N)N3C=CSC3=NC2=O)cc1,–,"inconclusive: 0.355 µM [activator, full curve, poor fit]"
CCOc1cccc(CN2CCC(N3CCC(C(=O)NCC4CCCO4)CC3)CC2)c1 (centres undefined),–,"inconclusive: 15.8 µM [activator, single point]"
CC(C)(C)c1ccc(C(=O)N2CCC(=O)N(C(COCc3ccccc3)Cc3ccccc3)CC2)cc1 (centres undefined),inactive: -20.1%,–
Cc1ccc(SCCC(=O)N/N=C/c2ccccc2O)cc1,–,"inconclusive: 20 µM [activator, single point]"
COc1cc2c(cc1OC)CN(C(=O)c1ccc(OC)c(S(=O)(=O)N3CCCC3)c1)CC2,inactive: -0.411%,–
COc1ccccc1NC(=O)C(C)OC(=O)CC1CCCC1 (centres undefined),–,"inconclusive: 3.98 µM [activator, single point]"
COc1ccc(C(=O)C(OC(=O)c2ccccc2Cl)c2ccccc2)cc1 (centres undefined),inactive: -3.61%,–
